According to US20110152202A1:
Substitutions are numbered along the chain they refer to. In names and notes the source's numbering stands. These are yes or no findings as the source states them, for the method shown. Some entries that bind do so weakly or less than the wild type. Each block holds one binder with its values, some of them ahead of it.

Chains of the proteins cited; added tags and fusions are not shown. Residues count along the entry.
UniProt P12318, residues 34-217: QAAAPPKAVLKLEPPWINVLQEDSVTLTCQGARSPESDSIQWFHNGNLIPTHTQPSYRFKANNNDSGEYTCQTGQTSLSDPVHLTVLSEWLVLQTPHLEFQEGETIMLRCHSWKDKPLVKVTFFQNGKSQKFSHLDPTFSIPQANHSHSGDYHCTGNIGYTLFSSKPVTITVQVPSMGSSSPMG
UniProt P08101, residues 30-330: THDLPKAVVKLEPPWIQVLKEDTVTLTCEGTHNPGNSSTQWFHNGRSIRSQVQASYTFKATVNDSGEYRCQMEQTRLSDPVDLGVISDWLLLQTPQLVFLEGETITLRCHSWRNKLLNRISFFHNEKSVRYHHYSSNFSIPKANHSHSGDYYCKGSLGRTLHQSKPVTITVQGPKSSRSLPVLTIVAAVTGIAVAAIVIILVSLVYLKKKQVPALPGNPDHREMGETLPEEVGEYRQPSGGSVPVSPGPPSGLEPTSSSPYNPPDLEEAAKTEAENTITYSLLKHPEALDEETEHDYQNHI

Legend:
human FcγRIIa (human) = human FcγRIIa (human) (UniProt P12318); test: SPR, CRP as analyte on immobilized human FcγR; same SPR experiment as M8; Kd above the highest measurable limit, weak binding, not shown non-binding
[1] = target: mouse FcγRIIb on mouse peritoneal macrophages (from FcR γ-chain-/- mice) (mouse) (UniProt P08101); test: two-color flow cytometry on mouse peritoneal macrophages
[2] = target: mouse FcγRIIb on mouse peritoneal macrophages (from FcR γ-chain-/- mice) (mouse) (UniProt P08101); test: two-color flow cytometry of CRP bound to mouse peritoneal macrophages expressing FcγRIIb (from FcR γ-chain-/- mice); panel title 'Binding to FcγRII'

binding (human FcγRIIa (human)): no binding (tested: 16.8 µM)
binding [1]: binds
binding [2]: binds
B1: Y175L mutant CRP (tyrosine 175 replaced by leucine) (ligand)
chain: QTDMSRKAFVFPKESDTSYVSLKAPLTKPLKAFTVCLHFYTELSSTRGYSIFSYATKRQDNEILIFWSKDIGYSFTVGGSEILFEVPEVTVAPVHICTSWESASGIVEFWVDGKPRVRKSLKKGYTVGAEASIILGQEQDSFGGNFEGSQSLVGDIGNVNMWDFVLSPDEINTILLGGPFSPNVLNWRALKYEVQGEVFTKPQLWP

binding [2]: binds
B2: C-reactive protein (human CRP) (ligand)
chain: B1 chain with L175Y
